Inconclusive means that the source gave no clear call. Such entries were picked first, then a sample of the others. Potencies beside an inconclusive call are fits to weak or partial responses and may not hold up. The source made the active and inactive calls. The calls were made as follows: active = hit-call score of the fitted dose curve at least 0.9, where 1 is the maximum; inconclusive = response in the unintended direction; inactive = score below 0.9.
Molecular target: human Purinergic Receptor P2Y, P2RY1 (gene 5028) (UniProt P47900)
Test: NVS_GPCR_hPY2: NovaScreen (NVS) G Protein-Coupled Receptor Assay for human Purinergic Receptor P2Y (AID 2283281)
In short: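 Filtration scintillation readout of radioligand displacement on U937 extract, measured 1 h post-dosing. Single 25 uM duplicate screen, then singleton concentration series to 50 uM for chemicals passing threshold; DMSO as baseline.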

Chains of the proteins cited; added tags and fusions are not shown. Lines headed by an entry give the natural chain unless they say otherwise; changes in a name come on top.
UniProt P47900: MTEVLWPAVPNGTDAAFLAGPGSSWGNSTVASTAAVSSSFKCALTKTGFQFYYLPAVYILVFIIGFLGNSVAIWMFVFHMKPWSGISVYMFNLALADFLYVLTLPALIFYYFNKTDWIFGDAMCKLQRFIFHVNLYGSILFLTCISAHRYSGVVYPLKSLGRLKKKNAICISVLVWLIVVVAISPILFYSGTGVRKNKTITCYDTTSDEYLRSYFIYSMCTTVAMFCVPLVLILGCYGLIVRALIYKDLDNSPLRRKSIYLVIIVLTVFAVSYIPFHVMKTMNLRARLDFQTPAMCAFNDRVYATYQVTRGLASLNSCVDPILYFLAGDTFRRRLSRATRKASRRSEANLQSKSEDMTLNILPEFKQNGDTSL
UniProt P21731: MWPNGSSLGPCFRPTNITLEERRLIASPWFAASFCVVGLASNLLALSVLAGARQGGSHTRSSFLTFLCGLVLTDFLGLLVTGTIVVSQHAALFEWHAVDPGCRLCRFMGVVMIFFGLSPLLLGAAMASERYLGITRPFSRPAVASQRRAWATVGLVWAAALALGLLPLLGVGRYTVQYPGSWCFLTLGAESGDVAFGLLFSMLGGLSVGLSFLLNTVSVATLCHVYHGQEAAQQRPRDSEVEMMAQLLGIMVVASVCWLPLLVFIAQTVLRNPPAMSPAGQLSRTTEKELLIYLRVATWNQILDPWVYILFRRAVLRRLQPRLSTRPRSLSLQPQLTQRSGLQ
UniProt P41146: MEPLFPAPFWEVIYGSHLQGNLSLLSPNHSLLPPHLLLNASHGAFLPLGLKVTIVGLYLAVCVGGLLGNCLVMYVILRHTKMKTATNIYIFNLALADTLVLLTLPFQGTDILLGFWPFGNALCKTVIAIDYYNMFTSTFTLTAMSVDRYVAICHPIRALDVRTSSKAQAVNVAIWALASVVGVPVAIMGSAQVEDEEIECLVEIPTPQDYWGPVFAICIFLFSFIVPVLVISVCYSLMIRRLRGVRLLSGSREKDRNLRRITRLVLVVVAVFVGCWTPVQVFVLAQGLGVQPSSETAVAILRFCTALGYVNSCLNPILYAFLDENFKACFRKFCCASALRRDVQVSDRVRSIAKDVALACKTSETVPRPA
UniProt P37288, whole entry, looked up: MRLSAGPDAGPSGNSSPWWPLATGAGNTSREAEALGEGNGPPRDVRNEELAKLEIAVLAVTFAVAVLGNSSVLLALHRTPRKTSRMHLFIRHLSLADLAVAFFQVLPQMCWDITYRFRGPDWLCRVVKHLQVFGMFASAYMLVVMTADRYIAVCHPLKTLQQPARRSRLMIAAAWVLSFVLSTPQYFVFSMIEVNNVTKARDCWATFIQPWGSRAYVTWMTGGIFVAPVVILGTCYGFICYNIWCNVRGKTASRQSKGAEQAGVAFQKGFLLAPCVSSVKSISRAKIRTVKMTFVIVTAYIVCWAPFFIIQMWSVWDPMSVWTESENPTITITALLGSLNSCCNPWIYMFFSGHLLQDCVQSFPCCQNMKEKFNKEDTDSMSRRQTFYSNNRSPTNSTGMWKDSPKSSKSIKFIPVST
UniProt O08786, whole entry, looked up: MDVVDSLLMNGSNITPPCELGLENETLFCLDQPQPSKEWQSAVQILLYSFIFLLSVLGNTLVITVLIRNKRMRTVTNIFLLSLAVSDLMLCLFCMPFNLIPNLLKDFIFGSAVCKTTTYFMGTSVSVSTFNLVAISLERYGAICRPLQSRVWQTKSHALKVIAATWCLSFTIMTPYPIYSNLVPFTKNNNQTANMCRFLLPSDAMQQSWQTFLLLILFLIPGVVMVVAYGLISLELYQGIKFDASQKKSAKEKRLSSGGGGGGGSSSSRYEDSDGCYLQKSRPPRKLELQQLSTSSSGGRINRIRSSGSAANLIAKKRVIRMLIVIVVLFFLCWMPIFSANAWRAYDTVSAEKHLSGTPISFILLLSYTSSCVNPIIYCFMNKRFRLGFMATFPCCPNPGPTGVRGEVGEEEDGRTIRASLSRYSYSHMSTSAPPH
UniProt P19327, whole entry, looked up: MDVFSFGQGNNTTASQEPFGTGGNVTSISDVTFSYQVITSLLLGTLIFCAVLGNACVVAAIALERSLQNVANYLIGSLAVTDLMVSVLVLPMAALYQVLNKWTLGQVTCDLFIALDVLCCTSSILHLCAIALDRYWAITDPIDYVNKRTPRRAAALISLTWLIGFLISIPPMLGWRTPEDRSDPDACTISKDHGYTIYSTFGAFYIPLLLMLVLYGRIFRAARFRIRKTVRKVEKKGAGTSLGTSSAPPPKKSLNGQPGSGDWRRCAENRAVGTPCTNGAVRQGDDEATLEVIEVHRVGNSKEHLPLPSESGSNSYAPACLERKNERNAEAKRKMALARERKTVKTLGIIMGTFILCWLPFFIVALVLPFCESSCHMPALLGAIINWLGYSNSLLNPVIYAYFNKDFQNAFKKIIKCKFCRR

Q: With `CCCCCCCCCCCCCCCCOS(=O)(=O)O` as the molecule, how does the AC50 read?
A: Its AC50 is active: 5.47 µM.

Q: Which AC50 does the source give for `CCCCCCCCCCCCCCOS(=O)(=O)O` here?
A: The AC50 was active: 10.3 µM.

Q: For `COC(=O)c1ccc(O)cc1`, which AC50 is on record?
A: Its AC50 is inconclusive: 25 µM.

Q: How did the AC50 turn out when `CCCCCCCCCCCCCCCCCC(=O)O` was run?
A: The AC50 was inconclusive: 25 µM.

Q: With `O=C(O)c1ccccc1` as the molecule, how does the outcome read?
A: The outcome was “inactive”.

Molecular target: human Thromboxane A2 Receptor (TXA2), TBXA2R (gene 6915) (UniProt P21731)
Test: NVS_GPCR_hTXA2: NovaScreen (NVS) G Protein-Coupled Receptor Assay for human Thromboxane A2 Receptor (TXA2) (AID 2283282);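 also: actives reduce bound radioligand signal relative to DMSO baseline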
In short: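 Cell-free radioligand binding on membrane protein from human platelets; radioligand displacement read by filter-based scintillation counting after 1 h. Primary screen in duplicate at 25 uM, actives then run in concentration series; loss of signal versus DMSO.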

Q: With `O=c1[nH]sc2ccccc12` as the molecule, how does the AC50 read?
A: The AC50 was inconclusive: 25 µM.

Q: Which AC50 does the source give for `O=P(c1ccccc1)(c1ccccc1)c1ccccc1` here?
A: Its AC50 is inconclusive: 0.08 µM.

Q: For `C1COCCN1`, which AC50 is on record?
A: The AC50 was active: 6.07 µM.

Q: Which AC50 does the source give for `COC(=O)c1c(Cl)c(Cl)c(C(=O)OC)c(Cl)c1Cl` here?
A: Its AC50 is inconclusive: 45.8 µM.

Q: With `COc1ccc2sc(C(=O)Nc3nnn[nH]3)c(OC(C)C)c2c1` as the molecule, how does the AC50 read?
A: Its AC50 is active: 0.187 µM.

Q: `CCCCCCCCOc1ccc(C(=O)c2ccccc2)c(O)c1` was tested. Which AC50 did it give?
A: Its AC50 is active: 25 µM.

Molecular target: human Orphanin, Opioid Related Nociceptin Receptor 1 (ORL1), OPRL1 (gene 4987) (UniProt P41146)
Test: NVS_GPCR_hORL1: NovaScreen (NVS) G Protein-Coupled Receptor Assay for human Orphanin, Opioid Related Nociceptin Receptor 1 (ORL1) (AID 2283283)
In short: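 Cell-free binding using HEK293-derived receptor protein: radioligand displacement measured by filter scintillation 1 hour after dosing. Primary testing at 25 uM in duplicate, followed by singleton concentration series up to 50 uM; DMSO served as negative control.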

Q: For `Cc1ccc(-c2cc(C(F)(F)F)nn2-c2ccc(S(N)(=O)=O)cc2)cc1`, which AC50 is on record?
A: The AC50 was inconclusive: 6.61 µM.

Q: `CCCCCCCCn1sc(Cl)c(Cl)c1=O` was tested. Which AC50 did it give?
A: The AC50 was active: 16.5 µM.

Q: For `O=C(N[C@@H](c1ccccc1)[C@@H]1CCCCN1)c1cccc(C(F)(F)F)c1Cl`, which AC50 is on record?
A: The AC50 was inconclusive: 0.17 µM.

Molecular target: human Vasopressin 1A Receptor (V1A), AVPR1A (gene 552) (UniProt P37288)
Test: NVS_GPCR_hV1A: NovaScreen (NVS) G Protein-Coupled Receptor Assay for human Vasopressin 1A Receptor (V1A) (AID 2283284)
In short: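 Single-concentration duplicate screen at 25 uM, with concentration-response follow-up (top 50 uM) for actives. The assay measured displacement of a radioligand from human platelet-derived receptor after 1.5 h, detected by filtration and scintillation counting.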

Q: How did the AC50 turn out when `COc1cccc([C@H](O)C2CCN(CCc3ccc(F)cc3)CC2)c1OC` was run?
A: Its AC50 is inconclusive: 1.2 µM.

Q: How did the AC50 turn out when `CCCCCCCCC(=O)O` was run?
A: Its AC50 is active: 5.76 µM.

Q: `NC(=O)c1nc(-c2cccc(-c3cc(F)ccc3OCC(F)(F)C(F)(F)F)c2)n[nH]1` was tested. Which AC50 did it give?
A: Its AC50 is inconclusive: 53.9 µM.

Molecular target: mouse Cholecystokinin, CCK1 Receptor (CCKA), Cckar (gene 12425) (UniProt O08786)
Test: NVS_GPCR_mCCKAPeripheral: NovaScreen (NVS) G Protein-Coupled Receptor Assay for mouse Cholecystokinin, CCK1 Receptor (CCKA) (AID 2283285)
In short: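 Chemicals were first screened in duplicate at 25 uM, with those meeting threshold (e.g., 30% inhibition) retested in singleton concentration series to 50 uM maximum. Binding of radioligand to mouse pancreatic membranes was read after 2 h by filtration and scintillation counting.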

Q: Which outcome does the source give for `ClC1=C(Cl)C(Cl)(Cl)C(Cl)=C1Cl` here?
A: The outcome was “inactive”.

Q: Which AC50 does the source give for `CC[C@H](C)[C@@H](C(=O)O)n1sc2ccccc2c1=O` here?
A: Its AC50 is inconclusive: 5.95 µM.

Q: `O=P(OC(CCl)CCl)(OC(CCl)CCl)OC(CCl)CCl` was tested. Which outcome did it give?
A: Its outcome is “inactive”.

Molecular target: rat Serotonin, 5-Hydroxytryptamine Receptor 1 (5HT1), Non-Selective Binding, Htr1a (gene 24473) (UniProt P19327)
Test: NVS_GPCR_r5HT1_NonSelective: NovaScreen (NVS) G Protein-Coupled Receptor Assay for rat Serotonin, 5-Hydroxytryptamine Receptor 1 (5HT1), Non-Selective Binding (AID 2283286)
In short: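 Binding of a radioligand to rat cortex membranes is read by filtration and scintillation counting after 1 h. Compounds were screened at 25 uM in duplicate. Actives were then titrated to a top of 50 uM. DMSO is the baseline.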

Q: For `N=C(N)c1ccc(OCCCCCOc2ccc(C(=N)N)cc2)cc1`, which AC50 is on record?
A: Its AC50 is active: 3.44 µM.

Q: For `O=C(O)c1ccc2c(c1)nc(C(=O)NC1CCN(C3CC3)CC1)n2Cc1cc(-c2ccc(Cl)s2)on1`, which outcome is on record?
A: The outcome was “inactive”.

Q: With `O=Cc1ccccc1C=O` as the molecule, how does the AC50 read?
A: The AC50 was inconclusive: 25 µM.

Q: With `CCCCCCCCCCCCCCCCCC(=O)O` as the molecule, how does the AC50 read?
A: The AC50 was inconclusive: 0.258 µM.

Q: `CCCOC(=O)c1ccc(O)cc1` was tested. Which AC50 did it give?
A: The AC50 was inconclusive: 25 µM.

Q: How did the AC50 turn out when `COCCO` was run?
A: The AC50 was inconclusive: 25 µM.

Q: Which outcome does the source give for `C=C(C)C(=O)OCCC(F)(F)C(F)(F)C(F)(F)C(F)(F)C(F)(F)C(F)(F)F` here?
A: The outcome was “inactive”.

Source: PubChem BioAssay (EPA / NIEHS)
